For the experiment, the system named is L1210 leukemia ip in BDF1 mice, survival T/C. In words: NCI In Vivo Anticancer Drug Screen. Data for tumor model L1210 Leukemia (intraperitoneal) in B6D2F1 (BDF1) mice. The conditions noted are these: T/C endpoint: mean survival time, higher T/C = longer survival.
Setting [1] is: dose: 400.0 mg/kg/injection, schedule: Q04DX003 (ip), vehicle: Klucel (hydroxypropylcellulose) (HPC).
Setting [2] is: dose: 100.0 mg/kg/injection, schedule: Q01DX009 (ip), vehicle: Klucel (hydroxypropylcellulose) (HPC).
The mark [3] stands for this setting: dose: 400.0 mg/kg/injection, schedule: Q01DX009 (ip), vehicle: Klucel (hydroxypropylcellulose) (HPC).
Setting [4] is: dose: 300.0 mg/kg/injection, schedule: Q01DX001 (ip), vehicle: other.
The mark [5] stands for this setting: dose: 150.0 mg/kg/injection, schedule: Q01DX001 (ip), vehicle: saline.
Where [6] appears, read: dose: 300.0 mg/kg/injection, schedule: Q01DX001 (ip), vehicle: saline.

The structures appear in SMILES notation. The list shows only some results of the screen, not a fair sample: it gathers tests that were run many times, whatever their T/C, doses with no T/C, and many T/C values between a quarter and a half above the control. Other doses and runs of a compound stand elsewhere. T/C is the treated group as % of the vehicle group. Some doses have a count of surviving animals in place of a T/C: the source holds a T/C of zero for them, seemingly a mark for toxic or unscored doses. Some doses without a T/C left all or most animals alive at the check, yet need not have been tolerated: survival well below the control is almost never listed, so the zero probably covers shortened survival too. Survivors were counted at the toxicity check, usually on the fifth day, unless a day is given; later deaths do not show. Schedule codes are those of the source, read here as Q, the interval in days (D) or hours (H), X, the number of doses. Some entries were tested several times; the values are given in rising order. Some schedule codes hold Z or #, which are not explained here. For survival time, this PubChem deposit counts one and a half times the control or more as active, and values a quarter to a half above the control carry no call in these data; other NCI protocols may use other cut-offs. Some T/C values are followed by the survivors on the day toxicity was checked, most often the fifth; where none is given, no animal had died by that day.

Take `CC(C)(O)C(Cl)(Cl)Cl`: the survivor count reads like this: under setting [1], 0 of 6; (dose: 400.0 mg/kg/injection, schedule: Q04DX003 (ip), vehicle: saline) 3 of 6.
For `CCCCN(C)N=Nc1c(Cl)cc(Cl)cc1C(N)=O`, the T/C by setting is: under setting [2], 143 % of control; (dose: 177.0 mg/kg/injection, schedule: Q04DX003 (ip), vehicle: Klucel (hydroxypropylcellulose) (HPC)) 128 % of control; (dose: 200.0 mg/kg/injection, schedule: Q04DX003 (ip), vehicle: Klucel (hydroxypropylcellulose) (HPC)) 132 % of control; (dose: 264.0 mg/kg/injection, schedule: Q04DX003 (ip), vehicle: Klucel (hydroxypropylcellulose) (HPC)) 138 % of control; (dose: 400.0 mg/kg/injection, schedule: Q01DX001 (ip), vehicle: other) 129 % of control; under setting [1], 134 % of control. The T/C (dose: 600.0 mg/kg/injection, schedule: Q01DX001 (ip), vehicle: Klucel (hydroxypropylcellulose) (HPC)) is 138 % of control [5 of 6 alive]. Also, the survivor count reads like this: under setting [3], 0 of 6; (dose: 600.0 mg/kg/injection, schedule: Q04DX003 (ip), vehicle: Klucel (hydroxypropylcellulose) (HPC)) 4 of 6.
Turning to `CCCCCCCCCCCCCCCCCC[N+]1(C)CCOCC1`, the survivor count is on record as 3 of 3 (dose: 50.0 mg/kg/injection, schedule: Q01DX009 (ip), vehicle: Klucel (hydroxypropylcellulose) (HPC)); 1 of 3 under setting [2]; 0 of 3 (dose: 200.0 mg/kg/injection, schedule: Q01DX009 (ip), vehicle: Klucel (hydroxypropylcellulose) (HPC)).
As to `CCC(CO)N=Cc1ccccc1O.CCC(CO)N=Cc1ccccc1O.[Ni]` (configuration not stated), the survivor count runs as follows: (dose: 150.0 mg/kg/injection, schedule: Q01DX001 (ip), vehicle: other) 3 of 6; under setting [4], 0 of 6.
Turning to `CCSc1ccc2c(cc1=O)C(NC(C)=O)CCc1cc(OC)c(OC)c(OC)c1-2` (configuration not stated), the survivor count reads like this: (dose: 100.0 mg/kg/injection, schedule: Q04DX002 (ip), vehicle: Klucel (hydroxypropylcellulose) (HPC)) 1 of 3 and 2 of 3; (dose: 200.0 mg/kg/injection, schedule: Q04DX002 (ip), vehicle: Klucel (hydroxypropylcellulose) (HPC)) 1 of 3; (dose: 400.0 mg/kg/injection, schedule: Q04DX002 (ip), vehicle: Klucel (hydroxypropylcellulose) (HPC)) 0 of 3.
On to `CS(=O)(=O)OCCN(CCOS(C)(=O)=O)c1ccc(C=O)cc1`, for which the T/C (dose: 7.5 mg/kg/injection, schedule: Q01DX009 (ip), vehicle: saline) is 132 % of control; the T/C (dose: 15.0 mg/kg/injection, schedule: Q01DX009 (ip), vehicle: saline) was 128 and 136 % of control; the T/C (dose: 30.0 mg/kg/injection, schedule: Q01DX009 (ip), vehicle: saline) is 135 % of control; the T/C (dose: 50.0 mg/kg/injection, schedule: Q01DX001 (ip), vehicle: saline) was 140 % of control; the T/C (dose: 60.0 mg/kg/injection, schedule: Q01DX009 (ip), vehicle: saline) is 130 % of control; the T/C (dose: 75.0 mg/kg/injection, schedule: Q01DX001 (ip), vehicle: saline) was 134 % of control. Further, the T/C by setting is: under setting [5], 131 % of control; under setting [6], 131 % of control. The survivor count was 2 of 6 under setting [5]; 6 of 6 (dose: 150.0 mg/kg/injection, schedule: Q01DX009 (ip), vehicle: saline); 5 of 6 (dose: 225.0 mg/kg/injection, schedule: Q01DX009 (ip), vehicle: saline); 0 of 6 under setting [6].
Turning to `CCC(CC)NC(CC)COC(=O)c1ccc(N)cc1` (configuration not stated), the survivor count under setting [4] is reported as 1 of 6.
In the case of `COc1ccc(NC(=O)N(CCCl)N=O)cc1OC`, the T/C was 145 % of control (dose: 2.0 mg/kg/injection, schedule: Q01DX009 (ip), vehicle: Klucel (hydroxypropylcellulose) (HPC)); 125 % of control (dose: 2.6 mg/kg/injection, schedule: Q01DX009 (ip), vehicle: Klucel (hydroxypropylcellulose) (HPC)); 138 % of control (dose: 10.0 mg/kg/injection, schedule: Q01DX001 (ip), vehicle: carboxymethylcellulose (CMC)). For the same molecule, the survivor count reads like this: (dose: 22.5 mg/kg/injection, schedule: Q01DX009 (ip), vehicle: carboxymethylcellulose (CMC)) 6 of 6; (dose: 30.0 mg/kg/injection, schedule: Q01DX009 (ip), vehicle: Klucel (hydroxypropylcellulose) (HPC)) 6 of 6; (dose: 45.0 mg/kg/injection, schedule: Q01DX009 (ip), vehicle: Klucel (hydroxypropylcellulose) (HPC)) 6 of 6; (dose: 75.0 mg/kg/injection, schedule: Q01DX001 (ip), vehicle: carboxymethylcellulose (CMC)) 6 of 6; (dose: 150.0 mg/kg/injection, schedule: Q01DX001 (ip), vehicle: carboxymethylcellulose (CMC)) 3 of 6; (dose: 300.0 mg/kg/injection, schedule: Q01DX001 (ip), vehicle: carboxymethylcellulose (CMC)) 0 of 6.
Turning to `c1ccc([P+](c2ccccc2)(c2ccccc2)C2CCC2)cc1`, the survivor count (dose: 37.5 mg/kg/injection, schedule: Q01DX009 (ip), vehicle: saline with Tween-80) is recorded as 0 of 6.
As for `C=CCNC(=S)NCc1ccc(C)cc1`, the survivor count under setting [3] was 0 of 6.
As for `CCCCC(=O)N1C(C)CCCC1C` (configuration not stated), the survivor count is, setting by setting: (dose: 100.0 mg/kg/injection, schedule: Q04DX002 (ip), vehicle: saline) 3 of 3; (dose: 200.0 mg/kg/injection, schedule: Q04DX002 (ip), vehicle: saline) 3 of 3.
Turning to `Cc1cccc(OC(=O)Nc2cccc(Cl)c2)c1`, the survivor count (dose: 400.0 mg/kg/injection, schedule: Q01DX009 (ip), vehicle: carboxymethylcellulose (CMC)) was 2 of 3 and 5 of 6.
Take `CCCCCCCCCCCC[n+]1ccc2ccccc2c1`: the survivor count by setting is: (dose: 2.0 mg/kg/injection, schedule: Q01DX001 (ip), vehicle: carboxymethylcellulose (CMC)) 4 of 4; (dose: 16.0 mg/kg/injection, schedule: Q01DX001 (ip), vehicle: carboxymethylcellulose (CMC)) 1 of 4.
On to `O=C(OC(CCN1CCCCC1)c1ccccc1)c1ccccc1` (configuration not stated), for which the survivor count reads like this: (dose: 200.0 mg/kg/injection, schedule: Q04DX003 (ip), vehicle: saline with Tween-80) 1 of 6; (dose: 400.0 mg/kg/injection, schedule: Q04DX003 (ip), vehicle: saline with Tween-80) 0 of 6.
`COc1ccc2[nH]c(-c3ccccc3)c(-c3ccccc3)c2c1`: the survivor count was 5 of 6 (dose: 200.0 mg/kg/injection, schedule: Q01DX009 (ip), vehicle: saline with Tween-80) and 5 of 6 (dose: 400.0 mg/kg/injection, schedule: Q01DX009 (ip), vehicle: saline with Tween-80).
With `Cc1ccc(Nc2nc(N)nc(N)c2N)c(C)c1`, the survivor count by setting is: (dose: 6.0 mg/kg/injection, schedule: Q01DX Z (ip), vehicle: saline) 3 of 6; (dose: 25.0 mg/kg/injection, schedule: Q01DX Z (ip), vehicle: saline) 0 of 6; (dose: 50.0 mg/kg/injection, schedule: Q01DX Z (ip), vehicle: saline) 2 of 6; (dose: 100.0 mg/kg/injection, schedule: Q01DX Z (ip), vehicle: saline) 0 of 6; (dose: 200.0 mg/kg/injection, schedule: Q01DX Z (ip), vehicle: saline) 0 of 6.
